Among the data in publication PMC12268039 are binding values, retold here.

Results are given in words; binding and its absence hold for the method and conditions named. Binding seen in cells or lysates may run through a third protein. Some entries that bind do so weakly or less than the wild type. Sequences can lack the tags named with a protein.

Assay [1] deals with T1, Flag-tagged UBR1 (human), Q8IWV7.
T1 chain: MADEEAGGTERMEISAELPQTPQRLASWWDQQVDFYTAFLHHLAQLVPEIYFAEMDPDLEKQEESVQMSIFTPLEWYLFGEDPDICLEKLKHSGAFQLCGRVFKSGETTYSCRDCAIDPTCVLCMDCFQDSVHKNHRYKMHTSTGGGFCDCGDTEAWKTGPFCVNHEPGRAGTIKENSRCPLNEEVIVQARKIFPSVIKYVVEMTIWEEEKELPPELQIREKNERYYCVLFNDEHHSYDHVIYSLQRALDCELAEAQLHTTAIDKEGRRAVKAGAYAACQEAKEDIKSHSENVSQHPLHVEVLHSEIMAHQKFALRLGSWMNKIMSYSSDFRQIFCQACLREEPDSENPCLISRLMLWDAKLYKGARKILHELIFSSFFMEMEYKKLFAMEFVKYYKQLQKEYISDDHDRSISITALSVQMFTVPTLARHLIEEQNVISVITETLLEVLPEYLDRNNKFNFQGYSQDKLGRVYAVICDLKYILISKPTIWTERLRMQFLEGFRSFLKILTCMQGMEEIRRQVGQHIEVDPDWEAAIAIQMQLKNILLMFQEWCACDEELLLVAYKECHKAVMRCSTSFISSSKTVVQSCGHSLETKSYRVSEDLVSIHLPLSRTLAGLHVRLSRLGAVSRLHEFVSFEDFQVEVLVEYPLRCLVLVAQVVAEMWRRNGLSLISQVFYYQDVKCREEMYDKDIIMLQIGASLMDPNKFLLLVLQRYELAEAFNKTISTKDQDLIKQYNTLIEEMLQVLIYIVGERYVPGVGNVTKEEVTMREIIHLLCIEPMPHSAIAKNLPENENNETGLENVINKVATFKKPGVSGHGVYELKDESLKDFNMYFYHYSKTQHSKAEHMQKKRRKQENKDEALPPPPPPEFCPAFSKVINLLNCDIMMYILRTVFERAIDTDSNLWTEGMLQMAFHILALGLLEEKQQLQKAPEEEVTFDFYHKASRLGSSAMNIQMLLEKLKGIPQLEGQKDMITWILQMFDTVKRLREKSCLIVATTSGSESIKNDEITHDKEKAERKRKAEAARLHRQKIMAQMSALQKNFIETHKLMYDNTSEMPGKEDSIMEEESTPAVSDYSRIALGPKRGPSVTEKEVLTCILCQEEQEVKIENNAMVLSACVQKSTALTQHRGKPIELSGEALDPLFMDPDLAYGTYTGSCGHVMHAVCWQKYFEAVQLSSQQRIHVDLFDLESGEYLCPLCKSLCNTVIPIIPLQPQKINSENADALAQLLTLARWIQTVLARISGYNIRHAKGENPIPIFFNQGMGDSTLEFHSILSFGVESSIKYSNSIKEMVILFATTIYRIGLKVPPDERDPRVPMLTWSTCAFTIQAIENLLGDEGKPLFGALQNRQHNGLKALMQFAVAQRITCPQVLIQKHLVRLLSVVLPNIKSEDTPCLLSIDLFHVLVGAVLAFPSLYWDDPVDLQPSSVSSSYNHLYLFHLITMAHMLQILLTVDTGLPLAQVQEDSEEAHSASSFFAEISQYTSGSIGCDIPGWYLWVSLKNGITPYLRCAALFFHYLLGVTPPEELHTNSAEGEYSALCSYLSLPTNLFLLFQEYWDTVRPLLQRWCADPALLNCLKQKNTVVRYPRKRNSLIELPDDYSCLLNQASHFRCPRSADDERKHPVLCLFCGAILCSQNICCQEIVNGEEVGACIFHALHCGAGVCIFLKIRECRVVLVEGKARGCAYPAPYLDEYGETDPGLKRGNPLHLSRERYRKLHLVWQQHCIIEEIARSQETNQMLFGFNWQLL
Put plainly: co-IP; HEK 293T cells transfected with the indicated plasmids, treated with DMSO or daclatasvir (10 μM) for 12 h; IP lysis buffer (20 mM Tris-HCl pH 7.4, 150 mM NaCl, 1 mM EDTA, 1% NP-40); lysate with protein A/G agarose beads and the indicated antibody overnight at 4°C; Western blot. The note with it: remark: other sources report otherwise. In general terms: A western blot detects proteins with antibodies after separation by electrophoresis.

Assay [2] deals with T2, HA-tagged PLIN2 (perilipin-2) (human) (UniProt Q99541).
T2 sequence: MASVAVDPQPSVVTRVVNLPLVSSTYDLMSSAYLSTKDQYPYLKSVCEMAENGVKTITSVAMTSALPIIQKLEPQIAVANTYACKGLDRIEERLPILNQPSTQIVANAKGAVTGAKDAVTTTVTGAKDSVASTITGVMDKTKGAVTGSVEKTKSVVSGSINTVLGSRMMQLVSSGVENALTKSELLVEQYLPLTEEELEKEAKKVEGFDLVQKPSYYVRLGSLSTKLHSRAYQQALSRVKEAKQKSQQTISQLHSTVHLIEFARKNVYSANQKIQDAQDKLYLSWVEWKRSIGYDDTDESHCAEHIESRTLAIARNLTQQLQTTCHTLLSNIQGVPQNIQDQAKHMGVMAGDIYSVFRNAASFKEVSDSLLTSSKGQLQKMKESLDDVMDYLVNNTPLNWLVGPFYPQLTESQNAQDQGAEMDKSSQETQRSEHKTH
The assay is described as above.

B1: HA-tagged PLIN2 (perilipin-2), Q99541 1-437 (protein)
chain: T2 sequence
As to B1, in assay [1], the binding entry is listed as “binds”.

B2: Flag-tagged MARCH6 (enzyme, UniProt O60337 1-910)
chain: MDTAEEDICRVCRSEGTPEKPLYHPCVCTGSIKFIHQECLVQWLKHSRKEYCELCKHRFAFTPIYSPDMPSRLPIQDIFAGLVTSIGTAIRYWFHYTLVAFAWLGVVPLTACRIYKCLFTGSVSSLLTLPLDMLSTENLLADCLQGCFVVTCTLCAFISLVWLREQIVHGGAPIWLEHAAPPFNAAGHHQNEAPAGGNGAENVAADQPANPPAENAVVGENPDAQDDQAEEEEEDNEEEDDAGVEDAADANNGAQDDMNWNALEWDRAAEELTWERMLGLDGSLVFLEHVFWVVSLNTLFILVFAFCPYHIGHFSLVGLGFEEHVQASHFEGLITTIVGYILLAITLIICHGLATLVKFHRSRRLLGVCYIVVKVSLLVVVEIGVFPLICGWWLDICSLEMFDATLKDRELSFQSAPGTTMFLHWLVGMVYVFYFASFILLLREVLRPGVLWFLRNLNDPDFNPVQEMIHLPIYRHLRRFILSVIVFGSIVLLMLWLPIRIIKSVLPNFLPYNVMLYSDAPVSELSLELLLLQVVLPALLEQGHTRQWLKGLVRAWTVTAGYLLDLHSYLLGDQEENENSANQQVNNNQHARNNNAIPVVGEGLHAAHQAILQQGGPVGFQPYRRPLNFPLRIFLLIVFMCITLLIASLICLTLPVFAGRWLMSFWTGTAKIHELYTAACGLYVCWLTIRAVTVMVAWMPQGRRVIFQKVKEWSLMIMKTLIVAVLLAGVVPLLLGLLFELVIVAPLRVPLDQTPLFYPWQDWALGVLHAKIIAAITLMGPQWWLKTVIEQVYANGIRNIDLHYIVRKLAAPVISVLLLSLCVPYVIASGVVPLLGVTAEMQNLVHRRIYPFLLMVVVLMAILSFQVRQFKRLYEHIKNDKYLVGQRLVNYERKSGKQGSSPPPPQSSQE
For B2, the binding entry in assay [2] is “binds”.
